In paper PMC10482385:
Residue numbers refer to the chain shown, from its start. Names and notes keep the numbering of the source. These are yes or no findings as the source states them, for the method shown. Binding seen in cells or lysates may run through a third protein. Some results given as binding are weak or reduced against the parent protein; the word gives no strength.

Experiments:
Experiment in all cases: co-IP; HEK293T cells co-transfected with C-terminally HA- and Myc-tagged copies of the same EpCAM variant; lysate in 50 mM Tris/HCl pH 8.0, 1% NP-40, 500 mM NaCl; anti-HA antibody with Protein A/G agarose, 16 h at 4°C; anti-Myc western blot, also of 1:3 serial dilutions of the eluate
[1] = target: T1, human EpCAM, wildtype (human), P16422; settings: remark: other sources report otherwise
T1 chain: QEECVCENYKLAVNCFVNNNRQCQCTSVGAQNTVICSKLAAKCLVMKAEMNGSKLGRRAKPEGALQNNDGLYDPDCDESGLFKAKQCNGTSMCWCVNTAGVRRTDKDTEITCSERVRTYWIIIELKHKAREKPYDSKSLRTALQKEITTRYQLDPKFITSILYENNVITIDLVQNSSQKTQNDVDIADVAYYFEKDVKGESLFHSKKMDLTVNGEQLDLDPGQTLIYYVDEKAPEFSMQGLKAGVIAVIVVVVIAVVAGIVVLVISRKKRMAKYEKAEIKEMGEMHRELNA

human EpCAM R80A (human) = human EpCAM R80A (human) (UniProt P16422)
human EpCAM R80L (human) = human EpCAM R80L (human) (UniProt P16422)
human EpCAM R80Q (human) = human EpCAM R80Q (human) (UniProt P16422)
[2] = target: human EpCAM R80A/R81A (human) (UniProt P16422)

B1: human EpCAM, wildtype, P16422 24-314 (protein)
chain: T1 chain
B1 was tested, and the binding [1] was “binds”.

B2: human EpCAM R80A (protein, UniProt P16422 24-314)
chain: T1 chain with R57A
B2 was tested, and the binding (human EpCAM R80A (human)) was “binds”.

B3: human EpCAM R80L (protein, UniProt P16422 24-314)
chain: T1 chain with R57L
For B3, the binding (human EpCAM R80L (human)) was “binds”.

B4: human EpCAM R80Q (protein, UniProt P16422 24-314)
chain: T1 chain with R57Q
For B4, the binding (human EpCAM R80Q (human)) was “binds”.

B5: human EpCAM R80A/R81A (protein, UniProt P16422 24-314)
chain: T1 chain with R57A, R58A
With B5 the binding [2] was “binds”.
